Data as given in PubChem BioAssay AID504444 (National Center for Advancing Translational Sciences (NCATS), 2011).
About 7,500 (2.1%) of roughly 360,000 compounds were called active. This list was built around the results that the source calls inconclusive (neither active nor inactive); the mix of calls is not that of the screen. Calls come from the whole dose curve; as a rule, active = well fitted inhibition curve with a large enough effect; inconclusive = small, poorly fitted or top-dose-only effect, or effect the other way; inactive = flat fitted curve, though single readings scatter. A potency beside an inconclusive call is a rough fit, not a confirmed value.

Test: Nrf2 qHTS screen for inhibitors; note: nearly all actives have a fitted effect of over 60% in size
Conditions: A549 ARE-Fluc reporter, luciferase luminescence, 18-24 h; activity change, negative = inhibition: at 46 µM (top of the series)
In short: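 Quantitative HTS in A549 cells stably bearing an antioxidant response element-firefly luciferase construct. Inhibition of Nrf2-driven transcription was scored by luminescence after 18-24 h of compound exposure at 37 °C.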
% is set by controls: 0 for no effect and ±100 for the full control effect; potency is the fitted concentration of half-maximal effect.

| SMILES | Potency | activity change, negative = inhibition |
| --- | --- | --- |
| CCOC(=O)C1CCN(c2cc3c(cc2NC(=O)c2ccc(OC)c(OC)c2)n(C)c(=O)n3C)CC1 | inactive | – |
| O=C(Nc1ccc(Oc2ccccc2)cc1)c1cnc2n(c1=O)CCS2 | inconclusive: 4.61 µM [falling, full curve] | – |
| O=C(NCc1cccc(C(F)(F)F)c1)c1cccc(S(=O)(=O)N2CCN(Cc3ccccc3)CC2)c1 | inconclusive: 32.6 µM [falling, partial curve, poor fit] | – |
| CC(=O)c1ccccc1OCCOCCOCCOc1ccccc1C(C)=O | – | inactive: -18.2% |
| O=C(Cc1c(F)cccc1Cl)N(Cc1ccccc1)c1ccccn1 | inconclusive: 0.0065 µM [falling, full curve, poor fit] | – |
| CN(C)c1ccc(C(=O)OCC(=O)c2ccc[nH]2)cc1 | inconclusive: 16.4 µM [activator, single point] | – |
| CCC(C)NC(=O)Cn1c(=O)n(CCCC(=O)NCc2ccc(C)cc2)c(=O)c2ccccc21 (configuration not stated) | – | inactive: 8.75% |
| COc1ccc2cc3cc(C(=O)Nc4ccccc4N4CCN(C)CC4)oc3nc2c1 | – | inactive: -16.6% |
| COC(=O)C1=C(C(=O)OC)SC(=C2C(=S)C(C)(C)N(C(=O)C3CC3)c3ccccc32)S1 | inconclusive: 16.4 µM [falling, single point] | – |
| Cc1ccc(/C=C2\SC(=S)N(CCCC(=O)Nc3ccccc3C(=O)O)C2=O)cc1 | active: 14.6 µM | – |
| CCCc1ccc(-c2ccc(C(=O)O)cc2)nc1 | inconclusive: 0.92 µM [activator, partial curve] | – |
| CCOc1cnn(Cc2ccccc2)c(=O)c1SCc1ccccc1 | inconclusive: 9.2 µM [falling, partial curve] | – |
| CC1=C(CC(=O)O)c2cc(F)ccc2/C1=C/c1ccc(S(C)=O)cc1 (configuration not stated) | inconclusive: 32.6 µM [falling, partial curve, poor fit] | – |
| COc1cccc(C2CC(c3cccs3)=NN2C(=O)CSc2nc3c(cnn3-c3ccc(F)cc3)c(=O)[nH]2)c1OC (configuration not stated) | inconclusive: 29.1 µM [falling, single point] | – |
| C(=C\c1nc2ccccc2[nH]1)/c1ccccc1 | inconclusive: 13 µM [falling, single point] | – |
| CC(C)CN(C)C(=O)CCc1nnc(Cc2cccc(C(F)(F)F)c2)o1 | inconclusive: 8.2 µM [activator, partial curve] | – |
| Cc1cc(N/N=C/c2ccc(O)cc2O)nc(-n2nc(C)cc2C)n1 | inconclusive: 23.1 µM [falling, partial curve] | – |
| Cn1c2ccccc2c2cnn(CC(=O)O)c(=O)c21 | – | inactive: -3.26% |
| CCN(CC(=O)Nc1ccc(OC)cc1)C(=O)c1oc2c(Cl)cccc2c1C | – | inactive: -13.2% |
| CNc1snc(C)c1C(=O)OC(C)C(=O)Nc1cccc(C)c1 (configuration not stated) | inconclusive: 18.4 µM [falling, single point] | – |
| CCOC(=O)N1CCN(C(=O)c2ccc3nc(N4CCC(C)CC4)sc3c2)CC1 | inconclusive: 29.1 µM [falling, single point] | – |

| SMILES | Potency | activity change, negative = inhibition |
| --- | --- | --- |
| COc1ccc(Cl)cc1NC(=O)CSc1nnc(C)n2c1cc1sccc12 | inconclusive: 16.4 µM [activator, single point] | – |
| C/C(=N/NC(=O)c1ccc2c(c1)OCO2)c1ccc(NC(=O)C(F)(F)F)cc1 | inconclusive: 8.2 µM [activator, partial curve] | – |
| CC(C)(C)c1ccc(Nc2nc(C#N)nc(NC3CCCC3)n2)cc1 | inconclusive: 29.1 µM [falling, single point] | – |
| CC(OC(=O)CNC(=O)C12CC3CC(CC(C3)C1)C2)C(=O)Nc1ccc(N2CCOCC2)cc1 (configuration not stated) | inconclusive: 6.51 µM [activator, single point] | – |
| CC(C)CC1Nc2ncnc(N3CCN(c4ccccn4)CC3)c2N(Cc2ccc(Cl)cc2)C1=O (configuration not stated) | inconclusive: 23.1 µM [falling, single point] | – |
| COc1ccc(NC(=O)C2CC(=O)N(Cc3ccc(C)cc3)C2)cc1S(=O)(=O)N1CCCCC1 (configuration not stated) | inconclusive: 16.4 µM [falling, single point] | – |
| Cc1cc(C)n(CCNC(=O)c2cc(COc3ccc4ncccc4c3)on2)n1 | inconclusive: 20.6 µM [falling, partial curve] | – |
| CC(=O)N1N=C(c2cccs2)CC1c1cccc([N+](=O)[O-])c1 (configuration not stated) | – | inactive: -20.7% |
| COc1cc(C(=O)NCC2CCCO2)ccc1OCc1ccc(Cl)cc1Cl (configuration not stated) | inconclusive: 29.1 µM [falling, single point] | – |
| O=C(NCCc1ccc(Cl)cc1)c1ccc2nccnc2c1 | inconclusive: 1.84 µM [activator, partial curve, poor fit] | – |
| COc1cc(OC)c(S(=O)(=O)Nc2ccc(C(=O)O)cc2)cc1S(=O)(=O)Nc1ccc(C(=O)O)cc1 | – | inactive: 0.463% |
| CCCN(CCC)CCCNC(=O)c1cc2c(=O)n(CC)c3ccccc3c2s1 | – | inactive: -1.57% |
| CCOC(=O)c1ccc(N/C=C2/CCCC(C)C2=O)cc1 (configuration not stated) | inconclusive: 9.2 µM [activator, partial curve] | – |
| CCN1C(=O)C(CC(=O)Nc2ccc(OC)cc2)N(CCc2ccccc2)C1=S (configuration not stated) | – | inconclusive: 13.6% [activator] |
| Oc1ccc(-c2nccc(-c3cccs3)n2)cc1 | inconclusive: 20.6 µM [activator, single point] | – |
| CC(=O)SC1CC(=O)C=C2CCC3C4CCC(=O)OC4(C)CCC3C21C (configuration not stated) | inconclusive: 1.03 µM [falling, full curve, poor fit] | – |
| CCOc1ccc(OCC)c(NC(=O)c2nnn(CC(=O)Nc3cc(C)cc(C)c3)c2N)c1 | inconclusive: 25.9 µM [falling, single point] | – |
| Cc1ccsc1/C=N/NC(=O)c1nnn(-c2nonc2N)c1-c1ccc2c(c1)OCO2 | inconclusive: 20.6 µM [falling, partial curve] | – |
| CCCOCc1cc(CN2CCN(c3cccc(Cl)c3)CC2)c(O)c2ncccc12 | inconclusive: 29.1 µM [falling, single point] | – |
| Cc1cccc(C)c1NC(=O)c1c(C)oc2c1C1=NCCN1C=N2 | inconclusive: 29.1 µM [falling, single point] | – |
| Cc1ccc(C)n1CCN1CCN(C(=O)c2ccc(Cl)cc2)CC1 | inconclusive: 4.11 µM [activator, full curve, poor fit] | – |

Arranged by molar mass (largest number first): three of the compounds above

| SMILES | Potency | activity change, negative = inhibition |
| --- | --- | --- |
| COc1cc(OC)c(S(=O)(=O)Nc2ccc(C(=O)O)cc2)cc1S(=O)(=O)Nc1ccc(C(=O)O)cc1 | – | inactive: 0.463% |
| CCCOCc1cc(CN2CCN(c3cccc(Cl)c3)CC2)c(O)c2ncccc12 | inconclusive: 29.1 µM [falling, single point] | – |
| O=C(NCCc1ccc(Cl)cc1)c1ccc2nccnc2c1 | inconclusive: 1.84 µM [activator, partial curve, poor fit] | – |
